Measured values as given in the supplement of paper PMC4807443.
Where a name gives a salt, the structure may show the parent alone. The list shows a part of the results. The numbers are fractions of the control, whatever unit the source prints. Most values lie at the level of the controls, where differences are scatter.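 MIN6 is a mouse insulinoma beta-cell line that stably carries a lentiviral reporter in which the Pdx1 and Ins1 promoters each drive a nucleus-targeted fluorescent protein; cells were counted by automated imaging with a Hoechst nuclear stain. In the screen, a drug was a possible hit when its Ins1 promoter readout lay beyond two median absolute deviations from the DMSO controls while Pdx1 activity stayed near normal.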

Tested on: MIN6
Experiment: % Pdx1+ Ins1+ (double-positive, mature) cells relative to DMSO control (fold of DMSO control); higher = more mature Ins1 promoter-active cells
Details: 8.5 µM; 48 h; glucose 5 mM

| Compound | % Pdx1+ Ins1+ |
| --- | --- |
| CN(C)CCC=C1c2ccccc2COc2ccccc21 [Doxepin hydrochloride] | 1.02 |
| CC(C)[N+](C)(CCOC(=O)C1c2ccccc2Oc2ccccc21)C(C)C [Propantheline bromide] | 0.751 |
| Nc1ccccc1S(N)(=O)=O [2-Aminobenzenesulfonamide] | 0.959 |
| O=C(O)c1cn(C2CC2)c2cc(N3CCNCC3)c(F)cc2c1=O [Ciprofloxacin hydrochloride] | 0.994 |
| C1COC(NC(C2CC2)C2CC2)=N1 [Rilmenidine hemifumarate] | 0.787 |
| COc1cc(C(=O)NCc2ccc(OCCN(C)C)cc2)cc(OC)c1OC [Trimethobenzamide hydrochloride] | 1.12 |
| CC(C)NCC(O)COc1ccc(CCOCC2CC2)cc1 (configuration not stated) [Betaxolol hydrochloride] | 0.916 |
| CCc1nc(N)nc(N)c1-c1ccc(Cl)cc1 [Pyrimethamine] | 1 |
| CC(=O)[C@@]1(O)CC[C@H]2[C@@H]3C[C@H](C)C4=CC(=O)C=C[C@]4(C)[C@@]3(F)[C@@H](O)C[C@@]21C [Fluorometholone] | 0.858 |
| C1CCC(C(CC2CCCCN2)C2CCCCC2)CC1 (configuration not stated) [Perhexiline maleate] | 0.917 |
| C[C@H]1c2cccc(O)c2C(=O)C2=C(O)[C@]3(O)C(=O)C(C(N)=O)=C(O)[C@@H](N(C)C)[C@@H]3[C@@H](O)[C@@H]21 [Doxycycline hydrochloride] | 1.08 |
| C[C@](N)(Cc1ccc(O)c(O)c1)C(=O)O [Methyldopa (L,-)] | 0.932 |
| c1cnc(N2CCN(Cc3ccc4c(c3)OCO4)CC2)nc1 [Piribedil hydrochloride] | 0.929 |
| CCCC1C(=O)N2C(N(C)C)=Nc3ccc(C)cc3N2C1=O (configuration not stated) [Azapropazone] | 0.954 |
| CN1CCCN=C1/C=C/c1cccc(O)c1 [Oxantel pamoate] | 1.02 |
| CC(N)CCCC(C)(C)O (configuration not stated) [Heptaminol hydrochloride] | 0.721 |
| CC1(C)S[C@@H]2[C@H](NC(=O)C3(N)CCCCC3)C(=O)N2[C@H]1C(=O)O [Cyclacillin] | 0.888 |
| C[C@@H]1CCC[C@H](C)N1 [(cis-) Nanophine] | 0.86 |
| C[C@H]1[C@H](C)CC[C@]2(C(=O)O[C@@H]3O[C@H](CO[C@@H]4O[C@H](CO)[C@@H](O[C@@H]5O[C@H](C)[C@H](O)[C@@H](O)[C@H]5O)[C@H](O)[C@H]4O)[C@@H](O)[C@H](O)[C@H]3O)CC[C@]3(C)C(=CC[C@@H]4[C@@]5(C)C[C@@H](O)[C@H](O)[C@@](C)(CO)[C@@H]5CC[C@]43C)[C@H]12 [Asiaticoside] | 0.948 |
| Cc1c(O)c(=O)n(-c2ccccc2)n1C [Antipyrine, 4-hydroxy] | 1.06 |
| CC(C)OC(=O)C(C)(C)Oc1ccc(C(=O)c2ccc(Cl)cc2)cc1 [Fenofibrate] | 1.09 |
| CN1CCCN(C(c2ccccc2)c2ccc(Cl)cc2)CC1 (configuration not stated) [Homochlorcyclizine dihydrochloride] | 1.15 |
| C[C@@H]1C[C@H]2[C@@H]3CCC4=CC(=O)C=C[C@]4(C)[C@@]3(Cl)[C@@H](O)C[C@]2(C)[C@@]1(OC(=O)c1ccco1)C(=O)CCl [Mometasone furoate] | 0.882 |
| Nc1ncnc2c1ncn2C1OC(COP(=O)(O)O)C(O)C1O (configuration not stated) [Adenosine 5'-monophosphate monohydrate] | 0.914 |

An excerpt from above in order of heavy-atom count, smallest number first:

| Compound | % Pdx1+ Ins1+ |
| --- | --- |
| C1COC(NC(C2CC2)C2CC2)=N1 [Rilmenidine hemifumarate] | 0.787 |
| C[C@](N)(Cc1ccc(O)c(O)c1)C(=O)O [Methyldopa (L,-)] | 0.932 |
| Nc1ncnc2c1ncn2C1OC(COP(=O)(O)O)C(O)C1O (configuration not stated) [Adenosine 5'-monophosphate monohydrate] | 0.914 |
| O=C(O)c1cn(C2CC2)c2cc(N3CCNCC3)c(F)cc2c1=O [Ciprofloxacin hydrochloride] | 0.994 |
| CC(C)OC(=O)C(C)(C)Oc1ccc(C(=O)c2ccc(Cl)cc2)cc1 [Fenofibrate] | 1.09 |
| CC(C)[N+](C)(CCOC(=O)C1c2ccccc2Oc2ccccc21)C(C)C [Propantheline bromide] | 0.751 |
| COc1cc(C(=O)NCc2ccc(OCCN(C)C)cc2)cc(OC)c1OC [Trimethobenzamide hydrochloride] | 1.12 |
| C[C@@H]1C[C@H]2[C@@H]3CCC4=CC(=O)C=C[C@]4(C)[C@@]3(Cl)[C@@H](O)C[C@]2(C)[C@@]1(OC(=O)c1ccco1)C(=O)CCl [Mometasone furoate] | 0.882 |
| C[C@H]1[C@H](C)CC[C@]2(C(=O)O[C@@H]3O[C@H](CO[C@@H]4O[C@H](CO)[C@@H](O[C@@H]5O[C@H](C)[C@H](O)[C@@H](O)[C@H]5O)[C@H](O)[C@H]4O)[C@@H](O)[C@H](O)[C@H]3O)CC[C@]3(C)C(=CC[C@@H]4[C@@]5(C)C[C@@H](O)[C@H](O)[C@@](C)(CO)[C@@H]5CC[C@]43C)[C@H]12 [Asiaticoside] | 0.948 |

Additional structures

| Compound | % Pdx1+ Ins1+ |
| --- | --- |
| CCCCc1ccc2[nH]c(NC(=O)OC)nc2c1 [Parbendazole] | 0.864 |
| CCc1cccc(CC)c1NC(=O)CN(CC(=O)O)CC(=O)O [Etifenin] | 0.945 |
| CN/C(=N\CCSCc1nc[nH]c1C)NC#N [Cimetidine] | 1.03 |
| O=C(O)c1cc(/N=N/c2ccc(S(=O)(=O)Nc3ccccn3)cc2)ccc1O [Sulfasalazine] | 0.829 |
| C/C=C(/C(=C/C)c1ccc(O)cc1)c1ccc(O)cc1 [Dienestrol] | 0.849 |
| O=C(O)c1ccccc1OP(=O)(O)O [Fosfosal] | 1 |
| Nc1cc(N2CCCCC2)nc(N)[n+]1[O-] [Minoxidil] | 1.04 |
| COc1ccc2cc([C@H](C)C(=O)O)ccc2c1 [Naproxen] | 0.918 |
| O=c1n(CCCN2CCN(c3cccc(Cl)c3)CC2)nc2ccccn12 [Trazodone hydrochloride] | 1.16 |
| CC1(C)S[C@@H]2[C@H](NC(=O)[C@H](N)c3ccccc3)C(=O)N2[C@H]1C(=O)O [Ampicillin trihydrate] | 1.11 |
| NC(=O)c1cnccn1 [Pyrazinamide] | 0.951 |
| O=C(CCNNC(=O)c1ccncc1)NCc1ccccc1 [Nialamide] | 0.802 |
| N/C(=N\C(=O)c1nc(Cl)c(N)nc1N)NCc1ccccc1 [Benzamil hydrochloride] | 0.826 |
| Cc1nc2ccccn2c(=O)c1CCN1CCC(C(=O)c2ccc(F)cc2)CC1 [Pirenperone] | 1.06 |
| C=C(C)[C@@H]1CC[C@]2(CO)CC[C@]3(C)[C@H](CC[C@@H]4[C@@]5(C)CC[C@H](O)C(C)(C)[C@@H]5CC[C@]43C)[C@@H]12 [Betulin] | 0.904 |
| CC(=O)O[C@H]1C(=O)[C@@]2(C)[C@H]([C@H](OC(=O)c3ccccc3)[C@]3(O)C[C@H](OC(=O)[C@H](O)[C@@H](NC(=O)c4ccccc4)c4ccccc4)C(C)=C1C3(C)C)[C@]1(OC(C)=O)CO[C@@H]1C[C@@H]2O [Paclitaxel] | 1.09 |
| Cc1c(NC(=O)c2cccnc2)c(=O)n(-c2ccccc2)n1C [Nifenazone] | 0.948 |
| NS(=O)(=O)c1cc2c(cc1C(F)(F)F)NCNS2(=O)=O [Hydroflumethiazide] | 1.15 |
| CC(C)NC[C@@H](O)COc1ccc(CC(N)=O)cc1 [(R)-(+)-Atenolol] | 0.852 |
| CC(O)Cn1cnc2c1c(=O)n(C)c(=O)n2C (configuration not stated) [Proxyphylline] | 0.881 |
| CC[C@@H]1C(=O)OC[C@@H]1Cc1cncn1C [Pilocarpine nitrate] | 0.93 |
| CN1C(=O)CC[C@H]1c1cccnc1 [Cotinine (-)] | 1.05 |
| CO[C@@H]1[C@@H](O[C@@H]2O[C@H](C)[C@@H](O[C@H]3C[C@@](C)(O)[C@@H](OC(=O)CC(C)C)[C@H](C)O3)[C@H](N(C)C)[C@H]2O)[C@@H](CC=O)C[C@@H](C)[C@@H](O)/C=C/C=C/C[C@@H](C)OC(=O)C[C@H]1OC(C)=O [Josamycin] | 1.07 |
